Source: US12209144B2 (Novartis AG, priority 2018, dated 2025)

Tests used:
[1] = general procedure: Fmoc solid-phase peptide synthesis; Fmoc-Gly-RAM TentaGel resin (0.22 mmol/g); Fmoc-NH TentaGel RAM resin (0.23 mmol/g); HATU/DIPEA; details: for cyclisation yield: cyclisation step
[2] = general procedure: Fmoc solid-phase peptide synthesis; Fmoc-Gly-RAM TentaGel Resin; HATU/DIPEA; details: whole synthesis, scale 0.25 mmol
[3] = general procedure: Fmoc solid-phase peptide synthesis; Fmoc-NH TentaGel RAM Resin; HATU/DIPEA; details: whole synthesis, scale 0.1 mmol
[4] = whole synthesis, scale 0.1 mmol

Substance: 3-((3R,9S,12S,15S,18S,21S,24S,27S,30S,33S,36S,39S,44aS)-30-([1,1′-biphenyl]-4-ylmethyl)-15-(2-amino-2-oxoethyl)-9,24-dibenzyl-3-(ethylcarbamoyl)-18,21-bis((R)-1-hydroxyethyl)-12-isopropyl-26,27,32,33,35,39-hexamethyl-1,7,10,13,16,19,22,25,28,31,34,37,40-tridecaoxodotetracontahydro-6H-pyrrolo[2,1-f][1]thia[4,7,10,13,16,19,22,25,28,31,34,37,40]tridecaazacyclodotetracontin-36-yl)propanoic acid
- isolated mass [1, 4]: 36 mg
- isolated yield [1, 4]: 22%

Substance: 3-((3R,9S,12S,15S,18S,21S,24S,27S,30S,33S,36S,39S,44aS)-30-([1,1′-biphenyl]-4-ylmethyl)-36-(2-amino-2-oxoethyl)-3-((2-amino-2-oxoethyl)carbamoyl)-9,27-dibenzyl-15-(carboxymethyl)-18,21-bis((R)-1-hydroxyethyl)-24,39-bis(hydroxymethyl)-12-isopropyl-26,32-dimethyl-1,7,10,13,16,19,22,25,28,31,34,37,40-tridecaoxodotetracontahydro-6H-pyrrolo[2,1-f][1]thia[4,7,10,13,16,19,22,25,28,31,34,37,40]tridecaazacyclodotetracontin-33-yl)propanoic acid
- crude mass [2]: 266 mg

Substance: (6S,8aS,14S,17S,20S,23S,26S,29S,31aS,37S,40S,46R,48aS)-23,40-dibenzyl-17-(4-chlorobenzyl)-26,29-bis((R)-1-hydroxyethyl)-37-isopropyl-6,14,15,20,21-pentamethyl-5,8,13,16,19,22,25,28,31,36,39,42,48-tridecaoxohexatetracontahydro-13H-tripyrrolo[1,2-e1:1′,2′-j:1″,2″-k1][1]thia[4,7,10,13,16,19,22,25,28,31,34,37,40]tridecaazacyclodo-tetracontine-46-carboxamide
- crude mass [3]: 106 mg

Substance: Ac*-F-V-D-T-T-S-(N-Me)F-B-(N-Me)E-N-S-P-C*-G-NH2
- cyclisation yield [1]: 22%

Substance: ClCH2C(O)-F-V-N-T-T-F-(N-Me)A-B-(N-Me)A-(N-Me)E-A-P-C-N(H)Et
- cyclisation yield [1]: 76%

Substance: ClCH2C(O)-F-V-P-T-T-F-(N-Me)A-(p-Cl)F-(N-Me)A-P-A-P-C-NH2
- cyclisation yield [1]: 9%
